The list shows only some results of the screen, not a fair sample: it gathers tests that were run many times, whatever their T/C, doses with no T/C, and many T/C values between a quarter and a half above the control. Further doses and runs are listed elsewhere. T/C is the treated group as % of the vehicle group. Some doses have a count of surviving animals in place of a T/C: the source files T/C as zero there, which appears to mark a toxic dose or a test without result, not a measured value. Some doses without a T/C left all or most animals alive at the check, yet need not have been tolerated: the source hardly ever lists a survival T/C far under the control, and the zero likely stands for such cases as well. Survivors were counted at the toxicity check, usually on the fifth day, unless a day is given; later deaths do not show. Schedules are NCI's codes, read here as Q, the interval in days (D) or hours (H), X, the number of doses. Some entries were tested several times; the results are listed from low to high. Where survival is the endpoint, this PubChem deposit counts one and a half times the control or more as active, and values a quarter to a half above the control carry no call in these data; other NCI protocols may use other cut-offs. Some T/C values are followed by the survivors on the day toxicity was checked, most often the fifth; without a count, all were alive then.
Tested on: CD2F1 mice, L1210 leukemia ip, survival T/C
Assay: NCI In Vivo Anticancer Drug Screen. Data for tumor model L1210 Leukemia (intraperitoneal) in CD2F1 (CDF1) mice
Conditions: higher T/C = longer survival
In short: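 Tumor-bearing mice (transplanted tumor) were split into treated and vehicle control groups, and the measured endpoint of each treated group was divided by that of its vehicle controls.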

Structure (SMILES): S=P(N1CC1)(N1CC1)N1CC1
- T/C (T/C endpoint: mean survival time, dose: 1.0 mg/kg/injection, schedule: Q03HX024 (ip), vehicle: saline): 140 % of control
- T/C (T/C endpoint: mean survival time, dose: 2.0 mg/kg/injection, schedule: Q01DX007 (ip), vehicle: saline): 128 % of control
- T/C (T/C endpoint: mean survival time, dose: 2.0 mg/kg/injection, schedule: Q01DX009 (sc), vehicle: saline): 127 % of control
- T/C (T/C endpoint: mean survival time, dose: 3.0 mg/kg/injection, schedule: Q01DX009 (ip), vehicle: saline): 138 % of control
- T/C (T/C endpoint: mean survival time, dose: 4.0 mg/kg/injection, schedule: Q01DX005 (iv), vehicle: saline): 134 % of control
- T/C (T/C endpoint: mean survival time, dose: 4.0 mg/kg/injection, schedule: Q01DX009 (sc), vehicle: saline): 148 % of control
- T/C (T/C endpoint: mean survival time, dose: 4.0 mg/kg/injection, schedule: Q03DX003 (ip), vehicle: saline): 128 % of control
- survivor count (T/C endpoint: mean survival time, dose: 4.0 mg/kg/injection, schedule: Q03HX008 (ip), vehicle: saline): 7 of 10
- survivor count (T/C endpoint: mean survival time, dose: 4.0 mg/kg/injection, schedule: Q03HX016 (ip), vehicle: saline): 9 of 10
- survivor count (T/C endpoint: mean survival time, dose: 4.0 mg/kg/injection, schedule: Q03HX024 (ip), vehicle: saline): 8 of 10
- T/C (T/C endpoint: mean survival time, dose: 4.0 mg/kg/injection, schedule: Q04DX003 (ip), vehicle: saline): 140 % of control
- T/C (T/C endpoint: mean survival time, dose: 5.0 mg/kg/injection, schedule: Q04DX003 (ip), vehicle: saline): 133 % of control
- T/C (T/C endpoint: mean survival time, dose: 6.0 mg/kg/injection, schedule: Q01DX009 (ip), vehicle: saline): 128 % of control
- T/C (T/C endpoint: mean survival time, dose: 8.0 mg/kg/injection, schedule: Q01DX001 (iv), vehicle: saline): 128 % of control
- T/C (T/C endpoint: mean survival time, dose: 8.0 mg/kg/injection, schedule: Q01DX005 (iv), vehicle: saline): 148 % of control
- T/C (T/C endpoint: mean survival time, dose: 8.0 mg/kg/injection, schedule: Q01DX009 (oral), vehicle: saline): 148 % of control
- survivor count (T/C endpoint: mean survival time, dose: 8.0 mg/kg/injection, schedule: Q03HX008 (ip), vehicle: saline): 2 of 10
- survivor count (T/C endpoint: mean survival time, dose: 8.0 mg/kg/injection, schedule: Q03HX016 (ip), vehicle: saline): 5 of 10
- survivor count (T/C endpoint: mean survival time, dose: 8.0 mg/kg/injection, schedule: Q03HX024 (ip), vehicle: saline): 6 of 10
- T/C (T/C endpoint: mean survival time, dose: 10.0 mg/kg/injection, schedule: Q01DX001 (ip), vehicle: saline): 130 % of control
- T/C (T/C endpoint: mean survival time, dose: 11.0 mg/kg/injection, schedule: Q01DX001 (ip), vehicle: saline): 136, 142, 147 % of control
- survivor count (T/C endpoint: mean survival time, dose: 12.0 mg/kg/injection, schedule: Q01DX009 (ip), vehicle: saline): 10 of 10
- T/C (T/C endpoint: mean survival time, dose: 15.7 mg/kg/injection, schedule: Q01DX001 (ip), vehicle: saline with Tween-80): 137 % of control
- T/C (T/C endpoint: mean survival time, dose: 15.7 mg/kg/injection, schedule: Q01DX001 (ip), vehicle: saline): 133 and 149 % of control
- T/C (T/C endpoint: mean survival time, dose: 16.0 mg/kg/injection, schedule: Q01DX001 (oral), vehicle: saline): 147 % of control
- T/C (T/C endpoint: mean survival time, dose: 16.0 mg/kg/injection, schedule: Q01DX001 (sc), vehicle: saline): 144 % of control
- survivor count (T/C endpoint: mean survival time, dose: 16.0 mg/kg/injection, schedule: Q01DX005 (iv), vehicle: saline): 10 of 10
- survivor count (T/C endpoint: mean survival time, dose: 16.0 mg/kg/injection, schedule: Q01DX009 (ip), vehicle: saline): 9 of 10
- survivor count (T/C endpoint: mean survival time, dose: 16.0 mg/kg/injection, schedule: Q01DX009 (sc), vehicle: saline): 10 of 10
- T/C (T/C endpoint: mean survival time, dose: 16.0 mg/kg/injection, schedule: Q08DX002 (ip), vehicle: saline): 130 % of control [9 of 10 alive]
- T/C (T/C endpoint: mean survival time, dose: 17.0 mg/kg/injection, schedule: Q01DX001 (ip), vehicle: saline): 157, 167, 222 % of control
- survivor count (T/C endpoint: mean survival time, dose: 24.0 mg/kg/injection, schedule: Q01DX001 (ip), vehicle: saline): 2 of 6
- survivor count (T/C endpoint: mean survival time, dose: 24.0 mg/kg/injection, schedule: Q01DX009 (ip), vehicle: saline): 8 of 10
- T/C (T/C endpoint: mean survival time, dose: 25.0 mg/kg/injection, schedule: Q01DX001 (ip), vehicle: saline): 161, 262, 296 % of control
- survivor count (T/C endpoint: mean survival time, dose: 32.0 mg/kg/injection, schedule: Q01DX001 (ip), vehicle: saline): 2 of 10 and 4 of 6
- survivor count (T/C endpoint: mean survival time, dose: 32.0 mg/kg/injection, schedule: Q01DX001 (iv), vehicle: saline): 6 of 10
- survivor count (T/C endpoint: mean survival time, dose: 32.0 mg/kg/injection, schedule: Q01DX001 (sc), vehicle: saline): 5 of 10
- survivor count (T/C endpoint: mean survival time, dose: 32.0 mg/kg/injection, schedule: Q01DX009 (oral), vehicle: saline): 9 of 10
- survivor count (T/C endpoint: mean survival time, dose: 32.0 mg/kg/injection, schedule: Q04DX003 (ip), vehicle: saline): 3 of 10
- survivor count (T/C endpoint: mean survival time, dose: 32.0 mg/kg/injection, schedule: Q08DX002 (ip), vehicle: saline): 2 of 10
- survivor count (T/C endpoint: mean survival time, dose: 48.0 mg/kg/injection, schedule: Q01DX001 (ip), vehicle: saline): 1 of 6
- survivor count (T/C endpoint: mean survival time, dose: 64.0 mg/kg/injection, schedule: Q01DX001 (ip), vehicle: saline): 0 of 10
- survivor count (T/C endpoint: mean survival time, dose: 64.0 mg/kg/injection, schedule: Q01DX001 (iv), vehicle: saline): 5 of 10
- survivor count (T/C endpoint: mean survival time, dose: 64.0 mg/kg/injection, schedule: Q01DX001 (oral), vehicle: saline): 3 of 10
- survivor count (T/C endpoint: mean survival time, dose: 64.0 mg/kg/injection, schedule: Q01DX001 (sc), vehicle: saline): 3 of 10
- survivor count (T/C endpoint: mean survival time, dose: 64.0 mg/kg/injection, schedule: Q01DX009 (oral), vehicle: saline): 3 of 10
- survivor count (T/C endpoint: mean survival time, dose: 64.0 mg/kg/injection, schedule: Q04DX003 (ip), vehicle: saline): 0 of 10
- survivor count (T/C endpoint: mean survival time, dose: 64.0 mg/kg/injection, schedule: Q08DX002 (ip), vehicle: saline): 1 of 10
- survivor count (T/C endpoint: mean survival time, dose: 96.0 mg/kg/injection, schedule: Q01DX001 (ip), vehicle: saline): 3 of 6
- survivor count (T/C endpoint: mean survival time, dose: 128.0 mg/kg/injection, schedule: Q01DX001 (oral), vehicle: saline): 2 of 10
- survivor count (T/C endpoint: mean survival time, dose: 256.0 mg/kg/injection, schedule: Q01DX001 (oral), vehicle: saline): 4 of 10
- T/C (T/C endpoint: median survival time, dose: 1.0 mg/kg/injection, schedule: Q01DX009 (ip), vehicle: water, evaluated on day 5): 96 and 107 % of control
- T/C (T/C endpoint: median survival time, dose: 1.0 mg/kg/injection, schedule: Q01DX009 (ip), vehicle: water, evaluated on day 23): 96 % of control
- T/C (T/C endpoint: median survival time, dose: 1.0 mg/kg/injection, schedule: Q01DX009 (ip), vehicle: water, evaluated on day 30): 107 % of control
- T/C (T/C endpoint: median survival time, dose: 1.56 mg/kg/injection, schedule: Q01DX009 (ip), vehicle: saline): 128 % of control
- T/C (T/C endpoint: median survival time, dose: 2.0 mg/kg/injection, schedule: Q01DX009 (ip), vehicle: water, evaluated on day 5): 97 and 133 % of control
- T/C (T/C endpoint: median survival time, dose: 2.0 mg/kg/injection, schedule: Q01DX009 (ip), vehicle: water, evaluated on day 23): 97 % of control
- T/C (T/C endpoint: median survival time, dose: 2.0 mg/kg/injection, schedule: Q01DX009 (ip), vehicle: water, evaluated on day 30): 133 % of control
- T/C (T/C endpoint: median survival time, dose: 4.0 mg/kg/injection, schedule: Q01DX009 (ip), vehicle: water, evaluated on day 5): 97 and 166 % of control
- T/C (T/C endpoint: median survival time, dose: 4.0 mg/kg/injection, schedule: Q01DX009 (ip), vehicle: water, evaluated on day 23): 97 % of control
- T/C (T/C endpoint: median survival time, dose: 4.0 mg/kg/injection, schedule: Q01DX009 (ip), vehicle: water, evaluated on day 30): 166 % of control [7 of 8 alive]
- T/C (T/C endpoint: median survival time, dose: 6.25 mg/kg/injection, schedule: Q01DX009 (ip), vehicle: saline): 141 and 142 % of control
- T/C (T/C endpoint: median survival time, dose: 10.0 mg/kg/injection, schedule: Q01DX001 (ip), vehicle: saline): 128 % of control
- T/C (T/C endpoint: median survival time, dose: 15.0 mg/kg/injection, schedule: Q01DX001 (ip), vehicle: saline): 142 % of control
- survivor count (T/C endpoint: median survival time, dose: 16.0 mg/kg/injection, schedule: Q01DX009 (ip), vehicle: water): 8 of 8

Structure (SMILES): O=P(OCCCOCc1ccccc1)(N(CCCl)CCCl)N1CC1 (stereo unspecified)
- T/C (T/C endpoint: mean survival time, dose: 800.0 mg/kg/injection, schedule: Q01DX001 (ip), vehicle: DMSO): 136 % of control
